For this test, the system named is BDF1 mice, s.c. Lewis lung carcinoma, T/C %. The test is described as follows: NCI In Vivo Anticancer Drug Screen. Data for tumor model Lewis Lung Carcinoma (subcutaneous) in B6D2F1 (BDF1) mice. The method in brief:
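Tumor-bearing mice were treated with test compound, and either survival or tumor size was recorded. Values are the treated-group measurement divided by that of the vehicle-treated control group.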

Among the data in PubChem BioAssay AID270 (DTP/NCI, 2004) are T/C and survivor count values, retold here.

The list does not hold the whole screen: it gathers some chemical classes. Other doses and runs of a compound may be missing. T/C gives the treated animals as a percentage of the vehicle group. Schedules are NCI's codes, taken here to give the interval after Q, in days (D) or hours (H), and the number of doses after X. Some entries show no survivor count and are marked so; the dose need not have been tolerated. Some entries give survivors of the animals treated and no T/C: the source holds a T/C of zero for them, seemingly a mark for toxic or unscored doses. Some survivor counts are full or nearly so, which does not show that the dose was tolerated: the source hardly ever lists a survival T/C far under the control, and the zero likely stands for such cases as well. Survivors were counted at the toxicity check, usually on the fifth day, unless a day is given; later deaths do not show. Counts of survivors are from the toxicity check, whose day is not always given; animals may have died later. For survival time, this PubChem deposit counts one and a half times the control or more as active, and values a quarter to a half above the control carry no call in these data; other NCI protocols may use other cut-offs. Some T/C values carry the count of animals alive at the toxicity check (mostly the fifth day); without a count or a note in brackets, all were alive then.

`CCOC(=O)COc1ccc(N(CCCl)CCCl)cc1`: the T/C was 71 % of control (T/C endpoint: mean tumor weight, dose: 2.5 mg/kg/injection, schedule: Q01DX011 (ip), vehicle: other, evaluated on day 12, higher T/C = larger tumour); 112 % of control (T/C endpoint: mean tumor weight, dose: 5.0 mg/kg/injection, schedule: Q01DX011 (ip), vehicle: other, evaluated on day 12, higher T/C = larger tumour); 79 % of control (T/C endpoint: mean tumor weight, dose: 10.0 mg/kg/injection, schedule: Q01DX011 (ip), vehicle: other, evaluated on day 12, higher T/C = larger tumour); 72 % of control (T/C endpoint: mean tumor weight, dose: 20.0 mg/kg/injection, schedule: Q01DX011 (ip), vehicle: other, evaluated on day 12, higher T/C = larger tumour). Moreover, the survivor count by setting is: (T/C endpoint: mean tumor weight, dose: 20.0 mg/kg/injection, schedule: Q01DX011 (ip), vehicle: other, higher T/C = larger tumour) 1 of 6; (T/C endpoint: mean tumor weight, dose: 40.0 mg/kg/injection, schedule: Q01DX011 (ip), vehicle: other, higher T/C = larger tumour) 0 of 6; (T/C endpoint: mean tumor weight, dose: 80.0 mg/kg/injection, schedule: Q01DX011 (ip), vehicle: other, higher T/C = larger tumour) 0 of 6.
As to `O=NN1CCN/C1=N\[N+](=O)[O-]`, the T/C is, setting by setting: (T/C endpoint: median survival time, dose: 50.0 mg/kg/injection, schedule: Q02DX009 (ip), vehicle: saline with Tween-80, higher T/C = longer survival) 125 % of control; (T/C endpoint: median survival time, dose: 100.0 mg/kg/injection, schedule: Q02DX009 (ip), vehicle: saline with Tween-80, higher T/C = longer survival) 114 % of control; (T/C endpoint: median survival time, dose: 200.0 mg/kg/injection, schedule: Q02DX009 (ip), vehicle: saline with Tween-80, higher T/C = longer survival) 104 % of control [9 of 10 alive]. Further, under “T/C endpoint: median survival time, dose: 400.0 mg/kg/injection, schedule: Q02DX009 (ip), vehicle: saline with Tween-80, higher T/C = longer survival”, the survivor count was 7 of 10.
On to `N/C(=N\[N+](=O)[O-])N(CCO[N+](=O)[O-])N=O`, for which the T/C is, setting by setting: (T/C endpoint: mean tumor weight, dose: 2.5 mg/kg/injection, schedule: Q01DX011 (ip), vehicle: saline, evaluation day not shown, higher T/C = larger tumour) 66 % of control [survivor count not shown]; (T/C endpoint: mean tumor weight, dose: 5.0 mg/kg/injection, schedule: Q01DX011 (ip), vehicle: saline, evaluation day not shown, higher T/C = larger tumour) 28 % of control [survivor count not shown]; (T/C endpoint: mean tumor weight, dose: 10.0 mg/kg/injection, schedule: Q01DX011 (ip), vehicle: saline, evaluation day not shown, higher T/C = larger tumour) 106 % of control [survivor count not shown].
